Source: patent US6500824B1, “Kappa (OP2) opioid receptor antagonists” (Regents of the University of Minnesota, priority 1998, dated 2002)
Some entries share one result that the patent states for a list of compounds. At least one compound was matched to its structure with a doubt left.

Protein sequences, listed by entry. Tags and fused reporters are not part of them. Lines headed by an entry give the natural chain unless they say otherwise; changes in a name come on top.
UniProt P41144: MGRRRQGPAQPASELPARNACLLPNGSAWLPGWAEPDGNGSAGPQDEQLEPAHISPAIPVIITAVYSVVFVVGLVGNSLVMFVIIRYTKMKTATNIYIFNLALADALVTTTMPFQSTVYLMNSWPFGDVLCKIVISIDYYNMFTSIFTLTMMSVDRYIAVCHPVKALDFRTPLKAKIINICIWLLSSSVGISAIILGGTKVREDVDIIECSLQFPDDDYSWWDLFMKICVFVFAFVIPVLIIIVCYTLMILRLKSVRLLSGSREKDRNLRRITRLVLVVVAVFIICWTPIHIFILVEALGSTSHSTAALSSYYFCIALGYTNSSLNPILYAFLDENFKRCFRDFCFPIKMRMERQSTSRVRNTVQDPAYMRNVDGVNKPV

Target: T1, kappa (OP2) opioid receptor (Cavia porcellus, UniProt P41144)
T1 construct: a strip of longitudinal muscle with the myenteric plexus attached was prepared; from tissue; host or cells: guinea pig ileal longitudinal muscle with myenteric plexus
Experiment: Guinea pig ileal longitudinal muscle (GPI) smooth muscle assay, antagonism of ethylketazocine (EKC)
Type: cell-based
Details: for kappa antagonist potency compared with nor-BNI (in words) / kappa opioid receptor selectivity (in words): in vitro; for kappa antagonist potency compared with nor-BNI (in words): relative to nor-BNI; for kappa opioid receptor selectivity (in words): versus morphine and DADLE antagonism
Description: 1. Guinea Pig Ileal Longitudinal Muscle (GPI). Ilea from guinea pigs were taken approximately 10 cm from the ileocecal junction, and a strip of longitudinal muscle with the myenteric plexus attached was prepared by the method of H. B. Rang et al., Brit. J Pharmacol., 1964, 22, 356. A 1 cm portion of this strip was then mounted between two platinum electrodes placed in a 10 ml organ bath and connected to an isometric transducer, contractions were recorded on a polygraph. Contractions of the ileal strip were initiated by supramaximal rectangular pulses in all preparations (80 V of 0.5 ms duration at a frequency of 0.1 Hz). Krebs bicarbonate solution containing […] chloropheniramine maleate was the bathing solution and was continuously bubbled with 95% O2 and 5% CO2. The organ bath was maintained at 36-37° C. The longitudinal strip was allowed to equilibrate with continuous stimulation for a minimum of 90 min. Cumulative concentration-response curves were determined after drugs were added to the bath in preselected amounts and washed out with buffer after noting their maximum effects.
The standard agonists employed were [D-Ala^2, D-Leu^5]enkephalin (DADLE) (D), morphine (M) and ethylketazocine (EKC); these are selective for delta (D), mu (M) and kappa (EKC) opioid receptors, respectively. Concentration-response curves were obtained in the absence (control) and the presence of the antagonist and were determined as IC50 values. The IC50 ratio represents the IC50 in the presence of the antagonist divided by the control IC50 value in the same tissue. A concentration independent value of antagonist potency is calculated from the equation, Ke=[antagonist]/(IC50 ratio-1).

SMILES: CCNC(=N)Nc1ccc2[nH]c3c(c2c1)C[C@@]1(O)[C@H]2Cc4ccc(O)c5c4[C@@]1(CCN2CC1CC1)[C@H]3O5.O.O.O=C(O)C(F)(F)F.O=C(O)C(F)(F)F [Compound 16, 5′-N-Ethylguanidinyl-17-cyclopropylmethyl-6,7-didehydro-4,5-α-epoxy-3,14-dihydroxyindolo[2′,3′:6,7]morphinan Ditrifluoroacetate Dihydrate]
- antagonist activity towards the kappa opioid agonist EKC in the GPI (in words): potent antagonist activity
- kappa antagonist potency compared with nor-BNI (in words): more potent
- kappa opioid receptor selectivity (in words): highly selective

SMILES: CCCCNC(=N)Nc1ccc2[nH]c3c(c2c1)C[C@@]1(O)[C@H]2Cc4ccc(O)c5c4[C@@]1(CCN2CC1CC1)[C@H]3O5.O.O.O=C(O)C(F)(F)F.O=C(O)C(F)(F)F [Compound 17, 5′-N-Butylguanidinyl-17-cyclopropylmethyl-6,7-didehydro4,5α-epoxy-3,14-dihydroxyindolo[2′,3′:6,7]morphinan Ditrifluoroacetate Dihydrate]
- antagonist activity towards the kappa opioid agonist EKC in the GPI (in words): potent antagonist activity
- kappa antagonist potency compared with nor-BNI (in words): more potent
- kappa opioid receptor selectivity (in words): highly selective

SMILES: CNC(=N)Nc1ccc2[nH]c3c(c2c1)C[C@@]1(O)[C@H]2Cc4ccc(O)c5c4[C@@]1(CCN2CC1CC1)[C@H]3O5.O.O.O=C(O)C(F)(F)F.O=C(O)C(F)(F)F [Compound 18, 5′-Methylguanidinyl-17-cyclopropylmethyl-6,7-didehydro4,5α-epoxy-3,14-dihydroxyindolo[2′,3′:6,7]morphinan Ditrifluoroacetate Dihydrate]
- antagonist activity towards the kappa opioid agonist EKC in the GPI (in words): potent antagonist activity
- kappa antagonist potency compared with nor-BNI (in words): more potent
- kappa opioid receptor selectivity (in words): highly selective

SMILES: N#C/N=C(\N)Nc1ccc2[nH]c3c(c2c1)C[C@@]1(O)C2Cc4ccc(O)c5c4[C@@]1(CCN2CC1CC1)C3O5 (stereo partly drawn) [Compound 19, 5′-N′-Cyano-N-[17-(cyclopropylmethyl)-6,7-didehydro4.5α-epoxy-3,14-dihydroxyindolo[2′,3′:6,7]morphinian]-Guanidine]
- antagonist activity towards the kappa opioid agonist EKC in the GPI (in words): potent antagonist activity

SMILES: CN(C)CCCN/C(=N\C#N)Nc1ccc2[nH]c3c(c2c1)C[C@@]1(O)C2Cc4ccc(O)c5c4[C@@]1(CCN2CC1CC1)C3O5 (stereo partly drawn) [Compound 20, 5′-N-Cyano-N′-[3-(dimethylaminopropyl)]-N″-[17-(cyclopropylmethyl)6,7-didehydro4,5α-epoxy-3,14-dihydroxyindolo[2′,3′:6,7]morphinian]-guanidine]
- antagonist activity towards the kappa opioid agonist EKC in the GPI (in words): potent antagonist activity
- kappa antagonist potency compared with nor-BNI (in words): more potent
- kappa opioid receptor selectivity (in words): highly selective

SMILES: N#C/N=C(\NCCN1CCCC1)Nc1ccc2[nH]c3c(c2c1)C[C@@]1(O)C2Cc4ccc(O)c5c4[C@@]1(CCN2CC1CC1)C3O5 (stereo partly drawn) [Compound 21, 5′-N-Cyano-N′-[2-(1-aminoethylpyrrolidine)]-N″-[17-(cyclopropylmethyl)-6,7-didehydro4,5α-epoxy-3,14dihydroxyindolo[2′,3′:6,7]morphinian]-guanidine]
- antagonist activity towards the kappa opioid agonist EKC in the GPI (in words): potent antagonist activity
- kappa antagonist potency compared with nor-BNI (in words): more potent
- kappa opioid receptor selectivity (in words): highly selective
